Several values for one entry are separate records, joined by “and”; a condition that tells them apart may be missing. Equal values may be shown once. The source gives many values for each of these; only a part stands here.
Tested on: SW48 xenografts
Assay: SW48 cell-derived xenograft efficacy, HRO761 orally once daily
Format: in vivo, mouse
Description: All animal studies were conducted in accordance with ethics and procedures covered by permit BS-2275 and BS-1975 issued by the Kantonales Veterinäramt Basel-Stadt and in strict adherence to guidelines of the Eidgenössisches Tierschutzgesetz and the Eidgenössische Tierschutzverordnung, Switzerland. All animal studies were approved by the internal ethics committee. All animals had access to food and water ad libitum and were identified with transponders. They were housed in a specific-pathogen-free facility in IVC racks under a 12 h–12 h light–dark cycle. To establish cell-line-derived xenograft models, 6–7-week-old female athymic nude (Crl:NU(NCr)-Foxn1^nu) or SCID-BEIGE (CB17.Cg-PrkdcscidLystbg-J/Crl) mice from Charles River were engrafted subcutaneously with 5 million tumour cells in HBSS (H6648, Sigma-Aldrich). For SNU-407, Lovo, IM95, RL95.2, Ishikawa and IGROV-1, the cells were concentrated in 50% Matrigel (354234, Corning). Patient-derived xenografts were induced and expanded by transplantation as previously described. […] For the efficacy experiment, mice were randomized into groups (n = 5–6) for a mean tumour size of 100–150 mm^3. […] Blood samples were collected on day 7 and 91. […] Tumour responses are reported with the measures of tumour volumes from the treatment start. […] Animals were randomized (n = 3) and tumour samples were collected at 0, 1, 4, 8 and 24 h on the first day and then collected 4 h after the last treatment on day 3, 8, 10, 14 (including a 24 h timepoint), 17 and 21. Tumours were excised, weighed, either frozen in liquid nitrogen and cryogenic dry pulverized with the CryoPrep system (model CP-02, Covaris) or processed to FFPE after fixation. […] On day 12, blood samples were collected for PK analysis. On the last day (3 h after the last treatment), tumours were excised, weighed, frozen in liquid nitrogen and cryogenic dry pulverized for PD analysis.

Compound: CCc1c(N2CCN(C(=O)c3ncnc(C)c3O)CC2)c(=O)n2nc(C3=CCOCC3)nc2n1CC(=O)Nc1ccc(C(F)(F)F)cc1Cl [HRO761]
- TVol, individual mouse (HRO761 60mg/kg, day 35 post 1st dose, 60 mg/kg): 38.59 mm3 and 37.63 mm3 and 13.44 mm3 and 52.03 mm3 and 36.47 mm3
- TVol, individual mouse (HRO761 60mg/kg, day 38 post 1st dose, 60 mg/kg): 34.79 mm3 and 32.21 mm3 and 13.1 mm3 and 42.19 mm3 and 38.3 mm3
- TVol, individual mouse (HRO761 60mg/kg, day 42 post 1st dose, 60 mg/kg): 38.34 mm3 and 25.51 mm3 and 14.73 mm3 and 20.65 mm3 and 34.22 mm3
- TVol, individual mouse (HRO761 60mg/kg, day 45 post 1st dose, 60 mg/kg): 47.39 mm3 and 21 mm3 and 15.41 mm3 and 28.75 mm3 and 29.52 mm3
- TVol, individual mouse (HRO761 60mg/kg, day 49 post 1st dose, 60 mg/kg): 51.51 mm3 and 18.01 mm3 and 21.47 mm3 and 23.95 mm3 and 28.03 mm3
- TVol, individual mouse (HRO761 60mg/kg, day 52 post 1st dose, 60 mg/kg): 68.35 mm3 and 24.01 mm3 and 24.32 mm3 and 43.1 mm3 and 38.53 mm3
- TVol, individual mouse (HRO761 60mg/kg, day 56 post 1st dose, 60 mg/kg): 82.87 mm3 and 7.91 mm3 and 30.79 mm3 and 31.31 mm3 and 53.59 mm3
- TVol, individual mouse (HRO761 60mg/kg, day 59 post 1st dose, 60 mg/kg): 103.18 mm3 and 10.3 mm3 and 48.16 mm3 and 59.59 mm3 and 69.82 mm3
- TVol, individual mouse (HRO761 60mg/kg, day 63 post 1st dose, 60 mg/kg): 102.68 mm3 and 9.67 mm3 and 42.12 mm3 and 67.35 mm3 and 93.52 mm3
- TVol, individual mouse (HRO761 60mg/kg, day 66 post 1st dose, 60 mg/kg): 101.51 mm3 and 13.13 mm3 and 57.48 mm3 and 81.89 mm3 and 113.13 mm3
- TVol, individual mouse (HRO761 60mg/kg, day 70 post 1st dose, 60 mg/kg): 127.55 mm3 and 15.6 mm3 and 77.18 mm3 and 112.34 mm3 and 128.92 mm3
- TVol, individual mouse (HRO761 60mg/kg, day 73 post 1st dose, 60 mg/kg): 119.24 mm3 and 17.3 mm3 and 93.25 mm3 and 122.55 mm3 and 148.14 mm3
- TVol, individual mouse (HRO761 60mg/kg, day 76 post 1st dose, 60 mg/kg): 153.16 mm3 and 20.34 mm3 and 83.04 mm3 and 141.81 mm3 and 192.27 mm3
- TVol, individual mouse (HRO761 60mg/kg, day 79 post 1st dose, 60 mg/kg): 180.13 mm3 and 32.32 mm3 and 98.53 mm3 and 183.17 mm3 and 228.57 mm3
- TVol, individual mouse (HRO761 60mg/kg, day 83 post 1st dose, 60 mg/kg): 188.68 mm3 and 36.4 mm3 and 118.06 mm3 and 197.83 mm3 and 298.54 mm3
- TVol, individual mouse (HRO761 60mg/kg, day 86 post 1st dose, 60 mg/kg): 277.63 mm3 and 35.68 mm3 and 148.42 mm3 and 200.74 mm3 and 324.66 mm3
- TVol, individual mouse (HRO761 60mg/kg, day 90 post 1st dose, 60 mg/kg): 353.7 mm3 and 58.99 mm3 and 203.08 mm3 and 217.42 mm3 and 418.27 mm3
- TVol, individual mouse (HRO761 60mg/kg, day 92 post 1st dose, 60 mg/kg): 334.59 mm3 and 57.33 mm3 and 204.82 mm3 and 218.54 mm3 and 474.36 mm3
- TVol, individual mouse (HRO761 120mg/kg, day 0 post 1st dose, 120 mg/kg): 116.68 mm3 and 125.27 mm3 and 177.18 mm3 and 142.4 mm3 and 181.53 mm3
- TVol, individual mouse (HRO761 120mg/kg, day 3 post 1st dose, 120 mg/kg): 142.47 mm3 and 186.73 mm3 and 186.95 mm3 and 111.35 mm3 and 197.89 mm3
- TVol, individual mouse (HRO761 120mg/kg, day 7 post 1st dose, 120 mg/kg): 141.84 mm3 and 146.3 mm3 and 153.59 mm3 and 128.76 mm3 and 204.55 mm3
- TVol, individual mouse (HRO761 120mg/kg, day 10 post 1st dose, 120 mg/kg): 156.98 mm3 and 135.71 mm3 and 131.09 mm3 and 118.43 mm3 and 177.29 mm3
- TVol, individual mouse (HRO761 120mg/kg, day 31 post 1st dose, 120 mg/kg): 18.4 mm3 and 30.97 mm3 and 20.27 mm3 and 13.58 mm3 and 31.87 mm3
- TVol, individual mouse (HRO761 120mg/kg, day 35 post 1st dose, 120 mg/kg): 11.73 mm3 and 21.67 mm3 and 18.71 mm3 and 15.84 mm3 and 25.06 mm3
- TVol, individual mouse (HRO761 120mg/kg, day 38 post 1st dose, 120 mg/kg): 10.12 mm3 and 24.79 mm3 and 15.42 mm3 and 10.17 mm3 and 14.7 mm3
- TVol, individual mouse (HRO761 120mg/kg, day 42 post 1st dose, 120 mg/kg): 11.83 mm3 and 20.83 mm3 and 24.05 mm3 and 7.53 mm3 and 11.98 mm3
- TVol, individual mouse (HRO761 120mg/kg, day 45 post 1st dose, 120 mg/kg): 14.14 mm3 and 22.52 mm3 and 34.42 mm3 and 11.93 mm3 and 27.68 mm3
- TVol, individual mouse (HRO761 120mg/kg, day 49 post 1st dose, 120 mg/kg): 12.44 mm3 and 9.2 mm3 and 35.08 mm3 and 16.12 mm3 and 14.85 mm3
- TVol, individual mouse (HRO761 120mg/kg, day 52 post 1st dose, 120 mg/kg): 12.46 mm3 and 2.93 mm3 and 31.32 mm3 and 19.01 mm3 and 7.39 mm3
- TVol, individual mouse (HRO761 120mg/kg, day 56 post 1st dose, 120 mg/kg): 20.97 mm3 and 5 mm3 and 46.97 mm3 and 34.59 mm3 and 9.29 mm3
- TVol, individual mouse (HRO761 120mg/kg, day 59 post 1st dose, 120 mg/kg): 24.89 mm3 and 6.45 mm3 and 43.1 mm3 and 38.18 mm3 and 7.96 mm3
- TVol, individual mouse (HRO761 120mg/kg, day 63 post 1st dose, 120 mg/kg): 29.66 mm3 and 3.38 mm3 and 45.16 mm3 and 42.08 mm3 and 8.27 mm3
- TVol, individual mouse (HRO761 120mg/kg, day 66 post 1st dose, 120 mg/kg): 36.01 mm3 and 1.11 mm3 and 63.74 mm3 and 62.9 mm3 and 6.44 mm3
- TVol, individual mouse (HRO761 120mg/kg, day 70 post 1st dose, 120 mg/kg): 47.92 mm3 and 1.76 mm3 and 70.95 mm3 and 72.09 mm3 and 4.36 mm3
- TVol, individual mouse (HRO761 120mg/kg, day 73 post 1st dose, 120 mg/kg): 51.19 mm3 and 4.39 mm3 and 77 mm3 and 93.1 mm3 and 3.15 mm3
- TVol, individual mouse (HRO761 120mg/kg, day 76 post 1st dose, 120 mg/kg): 58.83 mm3 and 2.67 mm3 and 76.97 mm3 and 85.78 mm3 and 4.13 mm3
- TVol, individual mouse (HRO761 120mg/kg, day 79 post 1st dose, 120 mg/kg): 74.28 mm3 and 3.38 mm3 and 84.28 mm3 and 104.47 mm3 and 5.16 mm3
- TVol, individual mouse (HRO761 120mg/kg, day 83 post 1st dose, 120 mg/kg): 88.58 mm3 and 2.55 mm3 and 98.28 mm3 and 141.69 mm3 and 3.47 mm3
- TVol, individual mouse (HRO761 120mg/kg, day 86 post 1st dose, 120 mg/kg): 145.33 mm3 and 2.84 mm3 and 118.1 mm3 and 155.48 mm3 and 5.53 mm3
- TVol, individual mouse (HRO761 120mg/kg, day 90 post 1st dose, 120 mg/kg): 162.9 mm3 and 0.32 mm3 and 119.94 mm3 and 167.94 mm3 and 6.07 mm3
- TVol, individual mouse (HRO761 120mg/kg, day 92 post 1st dose, 120 mg/kg): 149.38 mm3 and 0.7 mm3 and 108.13 mm3 and 215.2 mm3 and 1.43 mm3

— article PMC11078746 (Nature, 2024)
